# The list shows a part of the results.
# Amino acid sequences for entries named in this document (tags omitted). A change or cut given only in a name is not applied to a line headed by its entry.
# UniProt P26639: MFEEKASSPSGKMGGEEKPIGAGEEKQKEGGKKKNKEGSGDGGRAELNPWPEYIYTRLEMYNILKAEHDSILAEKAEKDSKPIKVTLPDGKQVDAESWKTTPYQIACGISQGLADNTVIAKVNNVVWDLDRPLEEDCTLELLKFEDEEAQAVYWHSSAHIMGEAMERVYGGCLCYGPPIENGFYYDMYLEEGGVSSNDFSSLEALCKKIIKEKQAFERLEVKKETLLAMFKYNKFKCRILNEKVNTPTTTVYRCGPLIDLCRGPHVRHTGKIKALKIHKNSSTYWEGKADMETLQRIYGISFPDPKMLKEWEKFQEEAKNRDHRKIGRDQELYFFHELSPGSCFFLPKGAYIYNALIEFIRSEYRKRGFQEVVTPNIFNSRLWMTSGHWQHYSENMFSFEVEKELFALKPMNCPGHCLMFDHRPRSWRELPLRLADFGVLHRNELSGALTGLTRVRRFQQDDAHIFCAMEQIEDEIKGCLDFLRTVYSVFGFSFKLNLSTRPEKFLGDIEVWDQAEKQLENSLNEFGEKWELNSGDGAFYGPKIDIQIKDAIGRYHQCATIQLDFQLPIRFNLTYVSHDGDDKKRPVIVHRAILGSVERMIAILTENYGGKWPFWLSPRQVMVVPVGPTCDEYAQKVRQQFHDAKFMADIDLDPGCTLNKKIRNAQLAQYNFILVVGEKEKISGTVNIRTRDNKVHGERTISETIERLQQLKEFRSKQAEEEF
# UniProt O60907: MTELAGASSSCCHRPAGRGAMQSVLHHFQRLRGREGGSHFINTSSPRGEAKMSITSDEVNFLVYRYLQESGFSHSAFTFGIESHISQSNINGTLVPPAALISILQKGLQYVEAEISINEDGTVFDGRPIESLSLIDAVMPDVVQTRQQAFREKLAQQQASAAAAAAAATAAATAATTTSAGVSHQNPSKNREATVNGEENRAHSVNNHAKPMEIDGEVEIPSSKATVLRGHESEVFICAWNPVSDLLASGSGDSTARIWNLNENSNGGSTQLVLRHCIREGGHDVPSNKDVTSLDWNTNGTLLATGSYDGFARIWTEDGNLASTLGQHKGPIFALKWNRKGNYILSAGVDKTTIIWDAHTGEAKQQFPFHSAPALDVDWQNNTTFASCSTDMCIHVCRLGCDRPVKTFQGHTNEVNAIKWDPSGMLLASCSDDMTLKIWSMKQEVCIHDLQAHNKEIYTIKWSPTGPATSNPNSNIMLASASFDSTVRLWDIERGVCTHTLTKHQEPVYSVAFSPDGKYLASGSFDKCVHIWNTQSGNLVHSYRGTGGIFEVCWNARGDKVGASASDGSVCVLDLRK
# UniProt Q8IWB9: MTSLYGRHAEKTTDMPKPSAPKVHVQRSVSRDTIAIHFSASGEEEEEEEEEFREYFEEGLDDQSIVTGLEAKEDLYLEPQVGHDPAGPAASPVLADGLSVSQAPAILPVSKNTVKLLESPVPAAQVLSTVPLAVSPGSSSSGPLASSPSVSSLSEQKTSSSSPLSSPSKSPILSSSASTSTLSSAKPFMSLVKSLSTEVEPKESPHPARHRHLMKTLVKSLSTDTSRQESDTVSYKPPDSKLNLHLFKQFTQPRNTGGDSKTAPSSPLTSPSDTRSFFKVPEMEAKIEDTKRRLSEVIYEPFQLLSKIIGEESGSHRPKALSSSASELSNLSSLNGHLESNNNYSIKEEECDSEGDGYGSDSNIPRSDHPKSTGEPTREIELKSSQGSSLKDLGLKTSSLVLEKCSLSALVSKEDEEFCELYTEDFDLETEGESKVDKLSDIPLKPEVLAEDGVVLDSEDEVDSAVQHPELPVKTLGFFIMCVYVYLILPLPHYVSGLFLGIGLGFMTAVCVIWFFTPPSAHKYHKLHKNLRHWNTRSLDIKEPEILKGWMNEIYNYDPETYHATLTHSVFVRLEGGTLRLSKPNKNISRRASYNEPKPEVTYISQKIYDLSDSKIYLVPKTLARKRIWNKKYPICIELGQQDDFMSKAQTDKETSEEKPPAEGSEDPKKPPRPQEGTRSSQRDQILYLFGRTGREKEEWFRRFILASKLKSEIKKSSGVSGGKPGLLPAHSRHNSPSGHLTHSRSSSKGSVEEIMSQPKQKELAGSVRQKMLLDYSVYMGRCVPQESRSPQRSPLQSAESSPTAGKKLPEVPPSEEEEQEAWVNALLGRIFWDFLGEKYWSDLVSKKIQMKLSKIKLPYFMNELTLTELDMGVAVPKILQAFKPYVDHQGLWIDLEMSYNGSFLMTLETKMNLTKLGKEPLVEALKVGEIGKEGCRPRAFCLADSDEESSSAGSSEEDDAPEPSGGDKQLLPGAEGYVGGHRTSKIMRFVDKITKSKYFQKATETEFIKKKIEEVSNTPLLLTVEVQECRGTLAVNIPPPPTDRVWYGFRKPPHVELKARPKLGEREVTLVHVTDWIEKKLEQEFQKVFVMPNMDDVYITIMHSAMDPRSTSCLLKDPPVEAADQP
# UniProt Q9NUW8, whole entry, looked up: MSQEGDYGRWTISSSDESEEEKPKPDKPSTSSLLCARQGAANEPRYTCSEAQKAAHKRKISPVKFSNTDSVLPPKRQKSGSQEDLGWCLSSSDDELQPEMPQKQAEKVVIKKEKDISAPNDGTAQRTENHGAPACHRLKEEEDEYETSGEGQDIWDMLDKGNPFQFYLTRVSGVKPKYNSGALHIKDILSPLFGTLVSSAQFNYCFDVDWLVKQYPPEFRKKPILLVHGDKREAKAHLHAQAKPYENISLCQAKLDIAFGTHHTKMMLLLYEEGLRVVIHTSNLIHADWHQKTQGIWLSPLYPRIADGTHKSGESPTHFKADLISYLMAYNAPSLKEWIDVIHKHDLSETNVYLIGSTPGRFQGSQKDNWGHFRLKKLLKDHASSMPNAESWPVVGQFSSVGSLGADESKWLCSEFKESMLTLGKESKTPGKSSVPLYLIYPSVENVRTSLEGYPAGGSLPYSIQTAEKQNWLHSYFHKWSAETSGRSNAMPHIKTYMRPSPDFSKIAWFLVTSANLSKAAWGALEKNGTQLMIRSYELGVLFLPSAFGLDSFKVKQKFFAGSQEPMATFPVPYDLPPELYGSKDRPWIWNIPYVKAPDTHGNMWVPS
# UniProt Q13395: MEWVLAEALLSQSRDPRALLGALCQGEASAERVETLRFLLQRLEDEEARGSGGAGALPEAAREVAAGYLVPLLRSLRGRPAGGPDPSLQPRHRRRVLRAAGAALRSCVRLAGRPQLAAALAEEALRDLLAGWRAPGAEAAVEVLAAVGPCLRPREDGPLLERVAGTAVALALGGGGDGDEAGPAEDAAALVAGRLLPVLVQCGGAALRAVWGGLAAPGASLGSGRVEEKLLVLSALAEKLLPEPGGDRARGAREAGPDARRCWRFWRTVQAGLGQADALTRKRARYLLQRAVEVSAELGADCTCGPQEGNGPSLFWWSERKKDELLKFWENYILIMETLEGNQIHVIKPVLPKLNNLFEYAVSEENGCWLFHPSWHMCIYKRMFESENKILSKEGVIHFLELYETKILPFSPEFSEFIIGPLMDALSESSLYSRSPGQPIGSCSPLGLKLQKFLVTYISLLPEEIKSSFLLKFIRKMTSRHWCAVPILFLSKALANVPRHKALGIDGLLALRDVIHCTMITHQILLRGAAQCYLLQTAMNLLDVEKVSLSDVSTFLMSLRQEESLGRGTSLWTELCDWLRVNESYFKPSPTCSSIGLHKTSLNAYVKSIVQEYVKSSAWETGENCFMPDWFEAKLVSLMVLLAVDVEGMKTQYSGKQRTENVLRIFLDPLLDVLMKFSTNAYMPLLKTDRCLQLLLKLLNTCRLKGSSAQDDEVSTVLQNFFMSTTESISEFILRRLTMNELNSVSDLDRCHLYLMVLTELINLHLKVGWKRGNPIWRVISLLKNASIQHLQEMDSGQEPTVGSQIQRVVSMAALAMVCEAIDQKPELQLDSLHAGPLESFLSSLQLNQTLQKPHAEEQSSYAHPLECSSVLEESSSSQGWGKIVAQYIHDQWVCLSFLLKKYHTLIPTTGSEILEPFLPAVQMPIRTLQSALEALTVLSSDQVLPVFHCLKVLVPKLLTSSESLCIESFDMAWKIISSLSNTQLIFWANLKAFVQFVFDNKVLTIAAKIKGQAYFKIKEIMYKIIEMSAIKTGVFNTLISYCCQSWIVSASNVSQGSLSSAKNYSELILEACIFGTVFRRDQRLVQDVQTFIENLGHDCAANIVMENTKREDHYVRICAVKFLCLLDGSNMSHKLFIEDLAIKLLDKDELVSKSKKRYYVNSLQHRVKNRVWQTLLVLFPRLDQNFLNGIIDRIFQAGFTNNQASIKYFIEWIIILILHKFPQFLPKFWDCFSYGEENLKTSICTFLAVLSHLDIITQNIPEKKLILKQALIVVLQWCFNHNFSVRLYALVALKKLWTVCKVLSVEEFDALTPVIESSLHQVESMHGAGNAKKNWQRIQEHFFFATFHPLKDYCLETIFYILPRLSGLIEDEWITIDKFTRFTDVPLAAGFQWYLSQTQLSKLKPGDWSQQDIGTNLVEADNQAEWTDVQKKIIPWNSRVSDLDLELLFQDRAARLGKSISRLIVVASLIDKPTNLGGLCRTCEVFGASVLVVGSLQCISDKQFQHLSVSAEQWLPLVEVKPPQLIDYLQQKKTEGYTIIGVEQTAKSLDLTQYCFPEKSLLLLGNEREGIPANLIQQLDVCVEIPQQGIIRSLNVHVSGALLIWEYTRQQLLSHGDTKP
# UniProt Q9P0N9: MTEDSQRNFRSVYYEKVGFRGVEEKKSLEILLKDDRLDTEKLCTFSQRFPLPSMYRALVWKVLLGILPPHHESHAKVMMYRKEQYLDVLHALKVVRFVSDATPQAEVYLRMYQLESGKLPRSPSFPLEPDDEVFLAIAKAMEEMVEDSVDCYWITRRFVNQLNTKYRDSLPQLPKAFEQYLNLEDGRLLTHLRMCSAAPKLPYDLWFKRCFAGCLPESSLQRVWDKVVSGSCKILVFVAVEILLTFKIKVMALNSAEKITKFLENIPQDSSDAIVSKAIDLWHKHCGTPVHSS
# UniProt Q9Y4C2: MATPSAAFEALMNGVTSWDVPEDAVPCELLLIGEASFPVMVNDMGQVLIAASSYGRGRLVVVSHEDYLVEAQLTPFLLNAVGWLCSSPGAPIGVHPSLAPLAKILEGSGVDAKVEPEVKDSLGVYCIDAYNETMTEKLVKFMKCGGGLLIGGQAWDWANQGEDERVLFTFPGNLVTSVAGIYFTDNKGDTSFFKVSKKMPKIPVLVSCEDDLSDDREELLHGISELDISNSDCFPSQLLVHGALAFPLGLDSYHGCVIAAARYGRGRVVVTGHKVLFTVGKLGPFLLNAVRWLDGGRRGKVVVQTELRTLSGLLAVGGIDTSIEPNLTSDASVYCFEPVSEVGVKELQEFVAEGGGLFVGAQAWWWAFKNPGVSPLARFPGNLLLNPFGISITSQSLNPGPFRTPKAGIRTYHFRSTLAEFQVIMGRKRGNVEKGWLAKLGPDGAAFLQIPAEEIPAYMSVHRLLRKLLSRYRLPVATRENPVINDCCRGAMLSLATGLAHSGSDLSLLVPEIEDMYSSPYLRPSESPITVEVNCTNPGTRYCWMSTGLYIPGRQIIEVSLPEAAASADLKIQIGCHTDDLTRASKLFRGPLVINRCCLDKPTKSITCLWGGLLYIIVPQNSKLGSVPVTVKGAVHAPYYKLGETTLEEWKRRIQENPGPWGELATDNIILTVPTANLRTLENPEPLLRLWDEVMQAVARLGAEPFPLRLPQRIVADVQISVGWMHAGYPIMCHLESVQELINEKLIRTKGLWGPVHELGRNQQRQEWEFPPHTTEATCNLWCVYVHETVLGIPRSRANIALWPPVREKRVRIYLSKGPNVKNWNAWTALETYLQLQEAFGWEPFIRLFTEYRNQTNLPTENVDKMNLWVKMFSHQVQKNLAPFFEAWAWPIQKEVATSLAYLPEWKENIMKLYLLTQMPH
# UniProt Q9BQ70: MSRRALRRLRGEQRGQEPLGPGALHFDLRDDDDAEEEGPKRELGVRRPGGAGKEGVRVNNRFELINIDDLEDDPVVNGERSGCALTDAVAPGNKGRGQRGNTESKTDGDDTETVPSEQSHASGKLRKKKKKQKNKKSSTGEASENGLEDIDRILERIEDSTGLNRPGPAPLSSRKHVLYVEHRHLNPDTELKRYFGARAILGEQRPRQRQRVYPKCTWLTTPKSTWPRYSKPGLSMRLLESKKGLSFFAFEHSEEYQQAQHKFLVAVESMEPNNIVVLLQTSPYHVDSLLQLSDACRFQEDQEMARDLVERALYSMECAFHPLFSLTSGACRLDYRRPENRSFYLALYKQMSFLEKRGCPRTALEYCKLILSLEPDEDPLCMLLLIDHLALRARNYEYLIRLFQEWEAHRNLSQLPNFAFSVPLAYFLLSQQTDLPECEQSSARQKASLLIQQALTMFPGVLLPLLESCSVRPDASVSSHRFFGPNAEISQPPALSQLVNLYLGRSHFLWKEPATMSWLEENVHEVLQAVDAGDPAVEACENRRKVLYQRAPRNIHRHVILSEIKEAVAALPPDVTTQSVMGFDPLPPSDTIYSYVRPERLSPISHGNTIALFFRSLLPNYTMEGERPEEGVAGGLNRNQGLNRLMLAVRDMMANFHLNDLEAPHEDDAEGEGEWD
# Compound: NCC(=O)Nc1ccc(-n2nc(C(F)(F)F)cc2-c2ccc3c(ccc4ccccc43)c2)cc1
# Assay: log2 fold change, soluble protein after heating vs DMSO (PISA); higher = thermal stabilisation; K562 lysate, 10 uM; active = over 0.2 and 3.5 SD of the protein, either way, in both replicates (recomputed)
# Outline: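 Following dounce homogenisation of K562 pellets in PBS pH 7.4 with 1 mM MgCl2, crude extract at 1 mg/mL protein was incubated for 30 min with 10 μM compound. Aliquots were then heated for 3 min over 48°C-58°C and pooled, NP-40 was added to 0.5% at 4°C, and soluble protein was recovered as the supernatant at 21,000xg for 90 min. Channel-sum-equalised TMTpro 16plex LC-MS/MS quantified this protein. Each value, from duplicates, is a log-two fold change in thermal stability relative to solvent controls.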
row,Target,log2 fold change
1,TBCEL (UniProt Q5QJ74),inactive: 0.08
2,TBC1D10B (UniProt Q4KMP7),inactive: -0.03
3,TBL2 (UniProt Q9Y4P3),inactive: -0.035
4,TBCA (UniProt O75347),inactive: -0.005
5,TCEA1 (UniProt P23193),inactive: -0.016
6,TBCC (UniProt Q15814),inactive: -0.048
7,TFB2M (UniProt Q9H5Q4),inactive: 0.018
8,TBC1D8B (UniProt Q0IIM8),inactive: 0.036
9,TBC1D2B (UniProt Q9UPU7),inactive: -0.007
10,TCOF1 isoform 4 (UniProt Q13428),inactive: 0.013
11,TAF9 (UniProt Q16594),inactive: 0.002
12,TAX1BP1 (UniProt Q86VP1),inactive: -0.015
13,TARS1 (UniProt P26639),inactive: 0.004
14,TBL1X (UniProt O60907),inactive: -0.037
15,TCEAL1 isoform 2 (UniProt Q15170),inactive: 0.058
16,TATDN1 isoform 2 (UniProt Q6P1N9),inactive: 0.18
17,TBL1XR1 (UniProt Q9BZK7),inactive: 0.015
18,TCF3 (UniProt X6REB3),inactive: -0.257
19,TAF9B (UniProt Q9HBM6),inactive: -0.204
20,TEAD2 isoform 4 (UniProt Q15562),inactive: 0.092

# Part of the list above, tab-delimited.
row	Target	log2 fold change
1	TBCEL (UniProt Q5QJ74)	inactive: 0.08
2	TBC1D10B (UniProt Q4KMP7)	inactive: -0.03
8	TBC1D8B (UniProt Q0IIM8)	inactive: 0.036
11	TAF9 (UniProt Q16594)	inactive: 0.002
12	TAX1BP1 (UniProt Q86VP1)	inactive: -0.015
15	TCEAL1 isoform 2 (UniProt Q15170)	inactive: 0.058
18	TCF3 (UniProt X6REB3)	inactive: -0.257

# Additional results

row,Target,log2 fold change
1,TEX2 isoform 2 (UniProt Q8IWB9),inactive: 0.148
2,TBC1D12 (UniProt O60347),inactive: 0.418
3,TFAP4 (UniProt Q01664),inactive: 0.005
4,TCERG1 (UniProt O14776),inactive: -0.005
5,TFB1M (UniProt Q8WVM0),inactive: -0.011
6,TDP1 (UniProt Q9NUW8),inactive: -0.004
7,TBC1D13 (UniProt Q9NVG8),inactive: 0.023
8,TARBP1 (UniProt Q13395),inactive: -0.151
9,TFDP2 (UniProt Q14188),inactive: -0.001
10,TBC1D7 (UniProt Q9P0N9),inactive: 0.17
11,TFIP11 (UniProt Q9UBB9),inactive: -0.001
12,TFAM (UniProt Q00059),inactive: -0.02
13,TCAF1 (UniProt Q9Y4C2),inactive: -0.006
14,TBC1D15 isoform 3 (UniProt Q8TC07),inactive: -0.013
15,TAF8 isoform 2 (UniProt Q7Z7C8),inactive: 0.009
16,TCF25 (UniProt Q9BQ70),inactive: -0.183
17,TCAF2 (UniProt A6NFQ2),inactive: 0.019
18,TEX264 (UniProt Q9Y6I9),inactive: -0.041
19,TELO2 (UniProt Q9Y4R8),inactive: 0.003
